The record followed here is PMC3897518.

Assay [1] addresses FLAG-tagged VP11 (VP11-FLAG) (White spot syndrome virus (WSSV-TW strain)). The assay can be described thus: co-IP; VP11-FLAG and V5-tagged candidates co-expressed in Sf9 cells; NP-40 lysis buffer (50 mM Tris-HCl pH 8.0, 150 mM NaCl, 1% NP-40); anti-FLAG M2 affinity gel at 4°C overnight; blot with anti-V5 antibody.
The target of assay [2] is GAL4 DNA-BD fused WSSV VP11 (aa 168-433) (White spot syndrome virus (WSSV-TW strain)). Kind of assay: two-hybrid; Matchmaker Gold yeast two-hybrid, mating of Y2HGold with bait GAL4 DNA-BD-VP11 (aa 168-433) and Y187 with GAL4-AD preys; selection on DDO/X/A and then QDO/X/A medium.

No constants are given. Whether binding was seen depends on the method and setting. A result given as binding can be weak or reduced; the word gives no strength. Tags and fused reporters may be left off the sequences shown. For some assays here: Binding seen in cells or lysates may run through a third protein.

B1: VP28-V5 (protein, UniProt Q9ICB7 1-204)
chain: MDLSFTLSVVSAILAITAVIAVFIVIFRYHNTVTKTIETHTDNIETNMDENLRIPVTAEVGSGYFKMTDVSFDSDTLGKIKIRNGKSDAQMKEEDADLVITPVEGRALEVTVGQNLTFEGTFKVWNNTSRKINITGMQMVPKINPSKAFVGSSNTSSFTPVSIDEDEVGTFVCGTTFGAPIAATAGGNLFDMYVHVTYSGTETE
Turning to B1, the binding entry in assay [1] is given as “binds”.

B2: WSSV VP28, GAL4-AD prey (protein, UniProt Q9ICB7 1-204)
chain: B1 chain
Take B2: the binding entry in assay [2] is “binds”.
